The name of at least one read-out is uncertain.
Experiment: Curcumin release assay (dialysis against PBS/10% Tween-80, 37° C.)
Assay type: physicochemical
Details: 4.5 mg/mL curcumin

In the case of `COc1cc(C=CC(=O)CC(=O)C=Cc2ccc(O)c(OC)c2)ccc1O` [curcumin, 1,7-bis-(4-hydroxy-3-methoxyphenyl)-1,6-heptadiene-3,5-dione], the “t1/2 of drug release” value is reported as 9 min.
